This assay concerns the target reovirus nonstructural protein σNS, wild type (mammalian orthoreovirus strain T3D) (UniProt P03526). Kind of assay: co-IP; HEK293T cotransfected with σNS and μNS plasmids, 24 h; lysed in co-IP buffer (20 mM Tris pH 7.5, 137 mM NaCl, 2 mM EDTA, 0.1% NP-40 substitute) at 4°C; σNS precipitated with σNS-specific monoclonal antibody 3E10 on protein G Dynabeads, 4°C, 4 h; immunoblot with μNS antiserum. For orientation: A western blot detects proteins with antibodies after separation by electrophoresis.

These are yes or no findings as the source states them, for the method shown. In cells and extracts the contact can be indirect. Some binding calls cover weakened binding; strength is not graded here.

B1: reovirus nonstructural protein μNS (protein, UniProt P12419 1-721)
chain: MASFKGFSANTVPVSKAKRDISSLAATPGLRSQSFTPSVDMSQSREFLTKAIEQGSMSIPYQHVNVPKVDRKVVSLVVRPFSSGAFSISGVISPAHAYLLECLPQLEQAMAFVASPESFQASDVAKRFAIKPGMSLQDAITAFINFVSAMLKMTVTRQNFDVIVAEIERLASTSVSVRTEEAKVADEELMLFGLDHRGPQLVDVSDAKGIMKAADIQTTHDVHLAPGVGNIDPEIYNEGRFMFMQHKPLAADQSYFTLETADYFKIYPTYDEHDGRMADQKQSGLILCTKDEVLAEQTIFKLDAPDDKTVHLLDRDDDHVVARFTKVFIEDVAPGHHAAQRSGQRSVLDDLYANTQVISITSAALKWVVKHGVSDGIVNRKNVKVCVGFDPLYTLSTHNGVSLCALLMDEKLSVLNSACRMTLRSLMKTGRDVDAHRAFQRVLSQGYTSLMCYYHPSRKLAYGEVLFLERSNDVTDGIKLQLDASRQCHECPVLQQKVVELEKQIIMQKSIQSDPTPVALQPLLSQLRELSSEVTRLQMELSRAQSLNAQLEADVKSAQSCSLDMYLRHHTCINGHAKEDELLDAVRVAPDVRREIMEKRSEVRQGWCERISKEAAAKCQTVIDDLTLMNGKQAQEITELRDSAEKYEKQIAELVSTITQNQITYQQELQALVAKNVELDALNQRQAKSLRITPSLLSATPIDSVDDVADLIDFSVPTDEL
On to B1, for which the binding entry was “binds”.

Source of the values: article PMC8406312, “Reovirus Nonstructural Protein σNS Recruits Viral RNA to Replication Organelles” (mBio, 2021).
